Measured values reported in article PMC8750874.
Results are given in words; binding and its absence hold for the method and conditions named. Binding seen in cells or lysates may run through a third protein. A yes stands for co-enrichment or nearness to the bait. Other partners may have been found. For part of these data: Sequences can lack the tags named with a protein.

How the values were obtained:
[1] = target: T1, Rubicon, human, endogenous (human (endogenous in THP-1 and colon)) (UniProt Q92622); assay: affinity purification with mass spectrometry; IP with anti-Rubicon from fractionated THP-1 cells, followed by mass spectrometry
T1 sequence: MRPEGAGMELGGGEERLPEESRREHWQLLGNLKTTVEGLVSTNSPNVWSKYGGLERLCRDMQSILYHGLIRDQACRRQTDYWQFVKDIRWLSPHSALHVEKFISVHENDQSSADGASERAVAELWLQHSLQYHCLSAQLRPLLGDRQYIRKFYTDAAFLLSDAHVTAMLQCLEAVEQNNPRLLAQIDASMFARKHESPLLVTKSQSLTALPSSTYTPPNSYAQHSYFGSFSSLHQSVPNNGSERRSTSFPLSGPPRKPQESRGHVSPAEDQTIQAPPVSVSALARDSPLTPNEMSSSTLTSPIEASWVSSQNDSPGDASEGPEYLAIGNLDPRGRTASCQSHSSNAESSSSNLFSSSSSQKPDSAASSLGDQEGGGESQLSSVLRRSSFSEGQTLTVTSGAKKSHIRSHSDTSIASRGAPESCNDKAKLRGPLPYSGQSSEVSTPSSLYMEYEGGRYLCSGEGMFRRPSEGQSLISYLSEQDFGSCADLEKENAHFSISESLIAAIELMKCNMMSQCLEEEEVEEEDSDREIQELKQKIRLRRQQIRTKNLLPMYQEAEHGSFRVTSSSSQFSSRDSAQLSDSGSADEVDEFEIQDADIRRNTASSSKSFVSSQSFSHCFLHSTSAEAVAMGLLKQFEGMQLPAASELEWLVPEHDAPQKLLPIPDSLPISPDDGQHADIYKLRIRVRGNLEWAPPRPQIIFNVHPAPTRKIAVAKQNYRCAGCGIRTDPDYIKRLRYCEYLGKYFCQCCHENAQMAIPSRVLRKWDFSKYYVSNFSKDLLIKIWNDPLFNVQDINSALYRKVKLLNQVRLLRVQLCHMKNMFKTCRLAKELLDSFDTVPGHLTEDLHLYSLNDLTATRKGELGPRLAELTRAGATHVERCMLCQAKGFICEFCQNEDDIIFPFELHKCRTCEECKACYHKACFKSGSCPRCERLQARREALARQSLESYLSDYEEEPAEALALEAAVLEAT

[2] = target: T2, Run/cysteine-rich-domain-containing Beclin1-interacting autophagy protein (Rubicon), mouse, endogenous (mouse (endogenous in BMDMs and colon)) (UniProt Q80U62); assay: affinity purification with mass spectrometry; IP with anti-Rubicon (18 h, 4 °C) from cytosolic and mitochondrial fractions of BMDMs transduced with Ad-Vector or Ad-Rubicon; NP-40 buffer (50 mM HEPES pH 7.4, 150 mM NaCl, 1 mM EDTA, 1% NP-40); silver-stained bands excised and analysed by mass spectrometry
T2 sequence: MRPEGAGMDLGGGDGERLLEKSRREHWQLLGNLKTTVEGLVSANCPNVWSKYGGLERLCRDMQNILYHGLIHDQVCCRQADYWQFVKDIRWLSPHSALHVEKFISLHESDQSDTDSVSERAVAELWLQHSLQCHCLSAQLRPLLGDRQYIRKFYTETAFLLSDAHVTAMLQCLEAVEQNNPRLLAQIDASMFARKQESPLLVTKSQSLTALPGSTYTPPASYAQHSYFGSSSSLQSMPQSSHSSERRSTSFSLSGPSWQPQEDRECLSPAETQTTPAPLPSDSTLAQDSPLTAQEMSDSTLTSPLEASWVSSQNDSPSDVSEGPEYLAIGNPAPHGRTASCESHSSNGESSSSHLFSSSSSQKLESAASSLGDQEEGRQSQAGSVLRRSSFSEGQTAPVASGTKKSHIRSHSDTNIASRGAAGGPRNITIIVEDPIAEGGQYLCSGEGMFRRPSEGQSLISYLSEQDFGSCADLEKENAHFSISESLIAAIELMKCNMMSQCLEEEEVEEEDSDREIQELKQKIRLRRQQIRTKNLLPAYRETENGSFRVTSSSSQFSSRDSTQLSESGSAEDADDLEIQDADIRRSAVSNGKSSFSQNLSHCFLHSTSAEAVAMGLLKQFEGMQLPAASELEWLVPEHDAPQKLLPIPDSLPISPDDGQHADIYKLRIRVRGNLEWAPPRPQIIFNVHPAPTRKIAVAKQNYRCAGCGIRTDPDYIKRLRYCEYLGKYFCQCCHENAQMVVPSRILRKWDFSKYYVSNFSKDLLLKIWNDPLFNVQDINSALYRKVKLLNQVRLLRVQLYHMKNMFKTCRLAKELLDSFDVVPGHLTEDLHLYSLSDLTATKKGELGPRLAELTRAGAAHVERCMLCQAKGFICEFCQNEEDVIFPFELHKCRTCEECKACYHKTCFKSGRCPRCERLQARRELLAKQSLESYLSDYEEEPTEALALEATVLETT

[3] = target: T3, full-length mouse Rubicon expressed from adenovirus (Ad-Rubicon) (mouse) (UniProt Q80U62); assay: as above
T3 sequence: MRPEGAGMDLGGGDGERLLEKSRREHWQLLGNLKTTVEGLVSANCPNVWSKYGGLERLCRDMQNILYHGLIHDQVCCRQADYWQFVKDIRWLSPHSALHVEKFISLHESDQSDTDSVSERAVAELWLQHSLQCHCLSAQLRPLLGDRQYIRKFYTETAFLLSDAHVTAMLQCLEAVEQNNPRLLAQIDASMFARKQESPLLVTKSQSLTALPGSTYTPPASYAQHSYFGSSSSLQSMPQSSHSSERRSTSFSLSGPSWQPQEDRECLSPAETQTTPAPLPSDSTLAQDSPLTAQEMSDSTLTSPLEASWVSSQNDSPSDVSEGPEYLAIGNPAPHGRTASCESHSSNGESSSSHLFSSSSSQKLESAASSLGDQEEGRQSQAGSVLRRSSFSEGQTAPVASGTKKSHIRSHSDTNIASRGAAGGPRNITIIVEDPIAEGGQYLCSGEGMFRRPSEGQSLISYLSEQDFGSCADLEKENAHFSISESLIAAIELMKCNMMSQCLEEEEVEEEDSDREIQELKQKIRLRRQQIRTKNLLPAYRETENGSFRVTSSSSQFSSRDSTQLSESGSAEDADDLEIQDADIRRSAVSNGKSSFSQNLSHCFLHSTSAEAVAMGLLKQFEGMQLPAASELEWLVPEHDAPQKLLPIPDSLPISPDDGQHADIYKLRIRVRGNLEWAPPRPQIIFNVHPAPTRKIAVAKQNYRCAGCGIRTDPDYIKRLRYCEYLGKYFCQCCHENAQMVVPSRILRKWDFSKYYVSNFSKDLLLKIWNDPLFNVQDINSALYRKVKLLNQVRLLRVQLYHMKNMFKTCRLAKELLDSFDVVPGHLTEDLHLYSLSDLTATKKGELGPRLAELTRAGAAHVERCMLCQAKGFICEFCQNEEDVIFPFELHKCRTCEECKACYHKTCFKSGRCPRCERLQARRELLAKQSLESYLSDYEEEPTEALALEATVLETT

p22phox (CYBA), human, endogenous (from UniProt P13498 1-195)
binding [1]: binds

B1: p22phox (cytochrome b-245 light chain, CYBA), mouse, endogenous (protein, UniProt Q61462 1-192)
chain: MGQIEWAMWANEQALASGLILITGGIVATAGRFTQWYFGAYSIAAGVLICLLEYPRGKRKKGSTMERCGQKYLTSVVKLFGPLTRNYYVRAALHFLLSVPAGFLLATILGTVCLAIASVIYLLAAIRGEQWTPIEPKPKERPQVGGTIKQPPTNPPPRPPAEVRKKPSEGEEEAASAGGPQVNPMPVTDEVV
binding [2]: binds | binding [3]: binds
